Taken from: PubChem BioAssay AID493246 (Drosophila RNAi Screening Center, 2011)
Aim: 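Genome-wide search for dsRNAs that reduce cell number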 (primary screen). System: Drosophila Kc and S2R+ cells. Reagent: long dsRNA against Drosophila genes. Measured: 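Raw, unnormalised count of remaining cells in each well; per-plate z-scores of cell number underlie the calls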. Scale: Kc cell number and S2R+ cell number: higher = more cells remaining. Active means: 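Counted as a hit if cell number falls by a z-score of at least 3 within its plate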.
In all, the deposit lists about 21,000 reagents; this is an unselected part of those that have a named target and a result. Over the whole deposit, 429 (2%) were called active. 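Values are raw and not normalised between plates; calls rest on per-plate z-scores that were not deposited.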 Entries without a mark were called inactive. The numbers tell different reagents against one gene apart. Not stated in the record: the amount of reagent, the time to read-out.

What did the screen give for CG6765?
Kc cell number, rep 1: 1.28e6; Kc cell number, rep 2: 1.38e6; S2R+ cell number, rep 1: 1.15e6; S2R+ cell number, rep 2: 1.20e6

With gom (gomdanji), how do the results read?
Kc cell number, rep 1: 1.59e6; Kc cell number, rep 2: 1.72e6; S2R+ cell number, rep 1: 1.41e6; S2R+ cell number, rep 2: 5.58e5

For Psn (Presenilin), what was measured?
Kc cell number, rep 1: 1.32e6; Kc cell number, rep 2: 1.34e6; S2R+ cell number, rep 1: 1.31e6; S2R+ cell number, rep 2: 1.36e6

With EMC7 (ER membrane protein complex subunit 7), what was measured?
Kc cell number, rep 1: 1.52e6; Kc cell number, rep 2: 1.56e6; S2R+ cell number, rep 1: 1.22e6; S2R+ cell number, rep 2: 1.28e6

For yata, what does the deposit list?
Kc cell number, rep 1: 1.56e6; Kc cell number, rep 2: 1.57e6; S2R+ cell number, rep 1: 1.03e6; S2R+ cell number, rep 2: 1.11e6

What is on record for Parg (Poly(ADP-ribose) glycohydrolase)?
Kc cell number, rep 1: 5.75e5; S2R+ cell number, rep 1: 8.69e5

For CG12236 #1, what does the deposit list?
Kc cell number, rep 1: 1.73e5 (active); S2R+ cell number, rep 1: 3.31e5

What is on record for CG12236 #2?
Kc cell number, rep 1: 1.52e6; Kc cell number, rep 2: 1.47e6; S2R+ cell number, rep 1: 1.12e6; S2R+ cell number, rep 2: 1.18e6

For CG11357, how do the results read?
Kc cell number, rep 1: 1.36e6; Kc cell number, rep 2: 1.37e6; S2R+ cell number, rep 1: 1.05e6; S2R+ cell number, rep 2: 1.17e6

Which result is listed for CG5171?
Kc cell number, rep 1: 1.49e6; Kc cell number, rep 2: 1.47e6; S2R+ cell number, rep 1: 5.19e5; S2R+ cell number, rep 2: 6.21e5

With Aasdh (Aminoadipate-semialdehyde dehydrogenase), what does the deposit list?
Kc cell number, rep 1: 1.75e6; Kc cell number, rep 2: 1.86e6; S2R+ cell number, rep 1: 1.34e6; S2R+ cell number, rep 2: 1.46e6

With Naglu (N-acetyl-alpha-glucosaminidase), what was measured?
Kc cell number, rep 1: 1.31e6; Kc cell number, rep 2: 1.38e6; S2R+ cell number, rep 1: 5.21e5; S2R+ cell number, rep 2: 6.36e5

With CG4119, how do the results read?
Kc cell number, rep 1: 5.02e5; S2R+ cell number, rep 1: 6.94e5

With Obp73a (Odorant-binding protein 73a), how do the results read?
Kc cell number, rep 1: 1.34e6; Kc cell number, rep 2: 1.50e6; S2R+ cell number, rep 1: 1.33e6; S2R+ cell number, rep 2: 1.43e6

What did the screen give for Mt2 (Methyltransferase 2)?
Kc cell number, rep 1: 1.56e6; Kc cell number, rep 2: 1.58e6; S2R+ cell number, rep 1: 1.34e6; S2R+ cell number, rep 2: 1.42e6

For CG18748, how do the results read?
Kc cell number, rep 1: 1.59e6; Kc cell number, rep 2: 1.80e6; S2R+ cell number, rep 1: 1.38e6; S2R+ cell number, rep 2: 1.53e6

Which result is listed for TTLL12 (Tubulin tyrosine ligase-like 12)?
Kc cell number, rep 1: 1.53e6; Kc cell number, rep 2: 1.67e6; S2R+ cell number, rep 1: 1.25e6; S2R+ cell number, rep 2: 1.33e6

What is on record for CG16789?
Kc cell number, rep 1: 1.48e6; Kc cell number, rep 2: 1.48e6; S2R+ cell number, rep 1: 1.24e6; S2R+ cell number, rep 2: 1.29e6

How did the screen score Spx (Spliceosomal protein on the X)?
Kc cell number, rep 1: 1.20e6; Kc cell number, rep 2: 1.30e6; S2R+ cell number, rep 1: 6.98e5; S2R+ cell number, rep 2: 7.91e5

With CG42471, what was measured?
Kc cell number, rep 1: 1.55e6; Kc cell number, rep 2: 1.62e6; S2R+ cell number, rep 1: 1.07e6; S2R+ cell number, rep 2: 1.14e6

Which result is listed for Ids (Iduronate 2-sulfatase)?
Kc cell number, rep 1: 1.44e6; Kc cell number, rep 2: 1.31e6; S2R+ cell number, rep 1: 1.06e6; S2R+ cell number, rep 2: 1.28e6

Sorted by “S2R+ cell number, rep 1” (lowest first): some entries from above
Naglu (N-acetyl-alpha-glucosaminidase) — Kc cell number, rep 1 = 1.31e6; Kc cell number, rep 2 = 1.38e6; S2R+ cell number, rep 1 = 5.21e5; S2R+ cell number, rep 2 = 6.36e5
CG4119 — Kc cell number, rep 1 = 5.02e5; S2R+ cell number, rep 1 = 6.94e5
